Measured values taken from doi:10.1101/2023.04.14.536856.
Where two headings read alike, the source gives them in different places. These are yes or no findings as the source states them, for the method shown. In cells and extracts the contact can be indirect. Some binding calls cover weakened binding; strength is not graded here. Sequences can lack the tags named with a protein. Each block holds one molecule with its values, some of them ahead of it.

Amino acid sequences for entries named in this document (tags omitted).
UniProt Q96524: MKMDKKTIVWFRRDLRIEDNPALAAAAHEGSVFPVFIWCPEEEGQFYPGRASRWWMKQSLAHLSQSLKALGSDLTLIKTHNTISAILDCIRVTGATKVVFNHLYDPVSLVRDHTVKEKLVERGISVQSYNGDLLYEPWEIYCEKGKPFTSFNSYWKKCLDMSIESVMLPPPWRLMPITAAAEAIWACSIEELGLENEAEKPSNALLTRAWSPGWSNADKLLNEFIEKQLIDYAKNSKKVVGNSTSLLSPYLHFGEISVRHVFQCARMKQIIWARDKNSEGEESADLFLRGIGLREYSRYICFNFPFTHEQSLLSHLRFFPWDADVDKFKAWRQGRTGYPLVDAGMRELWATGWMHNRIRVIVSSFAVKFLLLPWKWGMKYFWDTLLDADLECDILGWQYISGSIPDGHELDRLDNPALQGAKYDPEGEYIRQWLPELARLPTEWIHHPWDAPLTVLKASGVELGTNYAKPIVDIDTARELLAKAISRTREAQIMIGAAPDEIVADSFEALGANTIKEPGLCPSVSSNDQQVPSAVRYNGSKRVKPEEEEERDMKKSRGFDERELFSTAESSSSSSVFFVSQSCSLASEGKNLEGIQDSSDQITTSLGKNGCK

Tests used:
GFP-NF-YC5 (Arabidopsis) [1] = target: T1, GFP-NF-YC5 (Arabidopsis) (UniProt Q9FGP6); experiment: co-IP
T1 sequence: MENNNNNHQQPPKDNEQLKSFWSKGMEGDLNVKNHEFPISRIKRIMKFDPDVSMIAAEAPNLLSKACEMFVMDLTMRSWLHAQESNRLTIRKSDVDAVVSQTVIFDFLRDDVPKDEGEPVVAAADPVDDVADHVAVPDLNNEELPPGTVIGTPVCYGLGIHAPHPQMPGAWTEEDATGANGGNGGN

GFP-NF-YC7 (Arabidopsis) [2] = target: T2, GFP-NF-YC7 (Arabidopsis) (UniProt Q9FGP8); experiment: co-IP
T2 sequence: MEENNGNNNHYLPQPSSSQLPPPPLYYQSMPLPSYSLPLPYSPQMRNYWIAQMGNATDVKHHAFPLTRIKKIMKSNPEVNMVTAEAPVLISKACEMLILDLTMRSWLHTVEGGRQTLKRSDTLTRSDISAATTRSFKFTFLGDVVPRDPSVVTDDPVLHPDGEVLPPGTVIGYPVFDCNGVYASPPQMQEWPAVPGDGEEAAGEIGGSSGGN

GFP-NF-YC8 (Arabidopsis) [3] = target: T3, GFP-NF-YC8 (Arabidopsis) (UniProt Q4PSE2); experiment: co-IP
T3 sequence: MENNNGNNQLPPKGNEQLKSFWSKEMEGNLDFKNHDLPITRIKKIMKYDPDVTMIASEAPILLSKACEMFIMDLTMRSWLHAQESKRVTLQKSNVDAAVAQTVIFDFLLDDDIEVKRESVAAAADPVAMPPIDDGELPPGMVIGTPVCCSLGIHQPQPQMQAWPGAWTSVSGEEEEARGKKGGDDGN

[4] = target: T4, FGFP-NF-YC5 (Arabidopsis) (UniProt Q9FGP6); experiment: co-IP
T4 sequence: T1 sequence

[5] = target: T5, FGFP-NF-YC7 (Arabidopsis) (UniProt Q9FGP8); experiment: co-IP
T5 sequence: T2 sequence

[6] = target: T6, FGFP-NF-YC8 (Arabidopsis) (UniProt Q4PSE2); experiment: co-IP
T6 sequence: T3 sequence

[7] = target: T7, NF-YC5-nLUC (Arabidopsis) (UniProt Q9FGP6); experiment: split reporter
T7 sequence: T1 sequence

[8] = target: T8, NF-YC7-nLUC (Arabidopsis) (UniProt Q9FGP8); experiment: split reporter
T8 sequence: T2 sequence

[9] = target: T9, NF-YC8-nLUC (Arabidopsis) (UniProt Q4PSE2); experiment: split reporter
T9 sequence: T3 sequence

GFP-NF-YC5 (Arabidopsis) [10] = target: T1, GFP-NF-YC5 (Arabidopsis); experiment: co-IP; remark: listed apart in the source
GFP-NF-YC7 (Arabidopsis) [11] = target: T2, GFP-NF-YC7 (Arabidopsis); experiment: co-IP; remark: listed apart in the source
GFP-NF-YC8 (Arabidopsis) [12] = target: T3, GFP-NF-YC8 (Arabidopsis); experiment: co-IP; remark: listed apart in the source

binding (GFP-NF-YC5 (Arabidopsis) [1]): binds
binding (GFP-NF-YC7 (Arabidopsis) [2]): binds
binding (GFP-NF-YC8 (Arabidopsis) [3]): binds
Molecule: Myc-CRY2 (expressed in HEK293T cells) (from UniProt Q96524 1-612)

binding [4]: binds
binding [5]: binds
binding [6]: binds
Molecule: Myc-CRY2 (overexpressed in Arabidopsis) (from UniProt Q96524 1-612)

binding [7]: binds
binding [8]: binds
binding [9]: binds
B1: cLUC-PIF5 (protein, UniProt Q84LH8 1-444)
chain: MEQVFADWNFEDNFHMSTNKRSIRPEDELVELLWRDGQVVLQSQARREPSVQVQTHKQETLRKPNNIFLDNQETVQKPNYAALDDQETVSWIQYPPDDVIDPFESEFSSHFFSSIDHLGGPEKPRTIEETVKHEAQAMAPPKFRSSVITVGPSHCGSNQSTNIHQATTLPVSMSDRSKNVEERLDTSSGGSSGCSYGRNNKETVSGTSVTIDRKRKHVMDADQESVSQSDIGLTSTDDQTMGNKSSQRSGSTRRSRAAEVHNLSERRRRDRINERMKALQELIPHCSRTDKASILDEAIDYLKSLQMQLQVMWMGSGMAAAAAAAASPMMFPGVQSSPYINQMAMQSQMQLSQFPVMNRSAPQNHPGLVCQNPVQLQLQAQNQILSEQLARYMGGIPQMPPAGNQMQTVQQQPADMLGFGSPAGPQSQLSAPATTDSLHMGKIG

binding (GFP-NF-YC5 (Arabidopsis) [10]): binds
binding (GFP-NF-YC7 (Arabidopsis) [11]): binds
binding (GFP-NF-YC8 (Arabidopsis) [12]): binds
B2: Flag-PIF5 (expressed in HEK293T cells) (protein, UniProt Q84LH8 1-444)
chain: B1 chain
